Results reported in the supplement of paper PMC7411640.
Where a name gives a salt, the structure may show the parent alone. Some of the results follow. Most values lie within the scatter of the assay; repeated measurements hardly agree.

Test system: MDA-MB-468
Test: phospho-S6 immunofluorescence (DAPI-normalised), per-plate z-score; higher = higher phospho-S6 signal (less pathway suppression)
Conditions: compound 0.1 µM; co-treatment: GDC0941 450 nM; 24 h
Protocol: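 GPCR-targeted compound library (MedChemExpress HY-L006) tested on MDA-MB-468 PTEN-null TNBC cells in 384-well plates at 0.1, 1 or 10 uM, combined with vehicle, GDC0941 450 nM or lapatinib 1 uM, for 24 h. Phospho-S6 (S240/244) immunofluorescence normalised to DAPI and expressed as a per-plate z-score; values are the mean of biological triplicates.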

| Compound | phospho-S6 immunofluorescence (z-score) |
| --- | --- |
| O=C(NC(Cc1cc(=O)[nH]c2ccccc12)C(=O)O)c1ccc(Cl)cc1 (stereo not given) [Rebamipide] | 0.03 |
| Cc1nc(C(=O)N2CCC[C@H]2Cc2nnc(-c3ccccc3)o2)c(-c2ccccc2F)s1 | -0.15 |
| Cc1cc(C(C)(C)C)cc(C)c1CC1=NCCN1 [Xylometazoline (hydrochloride)] | 0.54 |
| C[C@]12CCC(=O)C=C1CC[C@@H]1[C@@H]2[C@@H](O)C[C@@]2(C)[C@H]1CC[C@]2(O)C(=O)CO [Hydrocortisone] | 0.49 |
| CN(C)CCOC(c1ccccc1)c1ccccc1.Cn1c(=O)c2[nH]c(Cl)nc2n(C)c1=O [Dimenhydrinate] | -0.62 |
| CN(C)CCC=C1c2ccccc2C=Cc2ccccc21 [Cyclobenzaprine (hydrochloride)] | -0.56 |
| O=C(O)CC1CCC2(CC1)CCN(c1cc(OC(F)(F)F)ccc1Cl)CC2 | -0.2 |
| O=C1CC2(CCCC2)CC(=O)N1CCCCN1CCN(c2ncccn2)CC1 [Buspirone (hydrochloride)] | 1.07 |
| COc1ccccc1Oc1c(NS(=O)(=O)c2ccc(C)cn2)nc(-c2ccncc2)nc1OC [Avosentan] | -0.82 |
| Cc1ccc(-c2n[nH]c3c2C(c2cccc(O)c2)N(c2ccc(C(=O)O)cc2)C3=O)cc1 (stereo not given) | 0.3 |
| CCOc1nc2cccc(C(=O)O)c2n1Cc1ccc(-c2ccccc2-c2nnn[nH]2)cc1 [Candesartan] | 0.56 |
| NC(N)=Nc1nc(CSCC/C(N)=N/S(N)(=O)=O)cs1 [Famotidine] | -0.9 |
| CC(C)(Cc1ccc2ccccc2c1)NC[C@@H](O)COc1cccc(Cl)c1C#N [NPS-2143 (hydrochloride)] | -1.13 |
| Cc1cc2c(s1)Nc1ccccc1N=C2N1CCN(C)CC1 [Olanzapine] | 0.82 |
| CCOC(=O)N1CCC(NCCNC(=O)c2ccccc2C)CC1 | 0.6 |
| CN1[C@@H]2CC[C@H]1C[C@@H](OC(=O)c1c[nH]c3ccccc13)C2 [Tropisetron (Hydrochloride)] | -0.59 |
| CCc1cc2c(cc1CC)CC(NC[C@H](O)c1ccc(O)c3[nH]c(=O)ccc13)C2 [Indacaterol (maleate)] | 1.6 |
| O=c1[nH]c2ccccc2n1CCN1CCN(c2cccc(C(F)(F)F)c2)CC1 [Flibanserin] | 0.34 |
| C[N+](C)(C)CCOC(N)=O [Carbamoylcholine (chloride)] | 1.23 |
| CC(C)(C)NCC(O)c1cc(O)cc(O)c1 (stereo not given) [Terbutaline (sulfate)] | 0.81 |

Sorted by molecular weight (ascending): 3 of the compounds above

| Compound | phospho-S6 immunofluorescence (z-score) |
| --- | --- |
| C[N+](C)(C)CCOC(N)=O [Carbamoylcholine (chloride)] | 1.23 |
| Cc1cc2c(s1)Nc1ccccc1N=C2N1CCN(C)CC1 [Olanzapine] | 0.82 |
| O=C1CC2(CCCC2)CC(=O)N1CCCCN1CCN(c2ncccn2)CC1 [Buspirone (hydrochloride)] | 1.07 |

The list goes on:

| Compound | phospho-S6 immunofluorescence (z-score) |
| --- | --- |
| COc1nc(C)cnc1NS(=O)(=O)c1cccnc1-c1ccc(-c2nnco2)cc1 [Zibotentan] | -1.11 |
| O=C(CN1C(=O)C2(CCCC2)NC[C@H]1c1cc(F)cc(F)c1)Nc1ccc2c(c1)C[C@@]1(C2)C(=O)Nc2ncccc21 [MK-3207 (Hydrochloride)] | -0.42 |
| CCN(CC)CCCC(C)Nc1nc(C)cc(Nc2ccc3nc(C)cc(N)c3c2)n1 (stereo not given) | 0.33 |
| CCC(=O)NC[C@@H]1C[C@H]1c1cccc2c1CCO2 [Tasimelteon] | 0.9 |
| CCOc1nc2cccc(C(=O)OC(C)OC(=O)OC3CCCCC3)c2n1Cc1ccc(-c2ccccc2-c2nn[nH]n2)cc1 (stereo not given) [Candesartan (Cilexetil)] | -1.96 |
| Clc1ccc(Cn2c(CN3CCCC3)nc3ccccc32)cc1 [Clemizole (hydrochloride)] | -2.25 |
| CN(C)CCN1C(=O)c2cccc3cc(NC(N)=O)cc(c23)C1=O | 1.25 |
| CC(C)C[C@H](NC(=O)[C@@H](COC(C)(C)C)NC(=O)[C@H](Cc1ccc(O)cc1)NC(=O)[C@H](CO)NC(=O)[C@H](Cc1c[nH]c2ccccc12)NC(=O)[C@H](Cc1cnc[nH]1)NC(=O)[C@@H]1CCC(=O)N1)C(=O)N[C@@H](CCCNC(=N)N)C(=O)N1CCC[C@H]1C(=O)NNC(N)=O [Goserelin (acetate)] | -0.09 |
| CN1Cc2c(N)cccc2C(c2ccccc2)C1 (stereo not given) [Nomifensine (maleate)] | -0.09 |
| O=c1cc(CN2CCOCC2)occ1OCCCCCSc1ccnc2cc(C(F)(F)F)ccc12 | -1.06 |
| COc1cccc(CCc2ccccc2OCC(CN(C)C)OC(=O)CCC(=O)O)c1 (stereo not given) [Sarpogrelate (hydrochloride)] | -0.85 |
| COc1cccc(-c2c(C)n(Cc3c(F)cccc3C(F)(F)F)c(=O)n(C[C@H](NCCCC(=O)O)c3ccccc3)c2=O)c1F [Elagolix] | 0.67 |
| CN1CCN2c3c(cccc31)[C@@H]1CN(CCCC(=O)c3ccc(F)cc3)CC[C@@H]12 [lumateperone (Tosylate)] | -7.46 |
| CN(C)CCCN1c2ccccc2Sc2ccc(C(F)(F)F)cc21 [Triflupromazine (hydrochloride)] | 2.25 |
| COc1cc2nc(N3CCN(C(=O)C4COc5ccccc5O4)CC3)nc(N)c2cc1OC (stereo not given) [Doxazosin (mesylate)] | -1.06 |
| CSc1ccc2c(c1)N(CCC1CCCCN1C)c1ccccc1S2 (stereo not given) [Thioridazine (hydrochloride)] | 1.03 |
| O=C(O)COc1cccc(CN(Cc2ccc(-n3cccn3)cc2)S(=O)(=O)c2cccnc2)c1 [Taprenepag] | 0.79 |
| Cc1nn(C)c2c1C(c1ccc(C(F)(F)F)cc1)C(C#N)=C(N)O2 (stereo not given) | 0.72 |
| OCCOCCN1CCN(C2=Nc3ccccc3Sc3ccccc32)CC1 [Quetiapine] | 1.6 |
| N=C(N)NCCC[C@H](NC(=O)[C@H](Cc1ccccc1)NC(=O)[C@@H]1CCCN1C(=O)[C@H](CO)NC(=O)[C@H](Cc1ccccc1)NC(=O)CNC(=O)[C@@H]1CCCN1C(=O)[C@@H]1CCCN1C(=O)[C@@H](N)CCCNC(=N)N)C(=O)O [Bradykinin] | -0.11 |
